Measured data: PubChem BioAssay AID1508597 (Cure First, 2020)

Test: 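Genes whose silencing sensitises or protects ovarian cancer cells against rucaparib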 (primary screen)
Cells: human ovarian carcinoma lines grown from tumours: OCI-P5x (papillary serous) and OCI-C5x (clear cell)
Reagent: siRNA pool against human genes, 1.25 pmol siRNA per well
Time to read-out: 72 h or 96 h, depending on the cell culture
Challenge: rucaparib 20 µM (about IC30) or vehicle, present until read-out
Rucaparib or vehicle: Vehicle
Cell line: OCI-C5x (clear cell)
Measurement: 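ATP luminescence measured at 72 or 96 h according to the culture, then normalised and expressed as percent viability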
Direction: viability, normalised: higher = more viable cells remaining
Rule for the call: 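Active when normalised viability falls below 80 percent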
Calls: active = viability under 80%; inactive = viability 80% or more
Shown is an unselected part of the about 2,100 reagents, under one of the conditions tested. 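Calls flag viability under 80% in either arm, not effects specific to rucaparib; the reference for percent is not stated.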 No sequences are given here. Not stated in the record: the 100% reference.

| target gene | technical replicate | viability, normalised (%) | Call |
| --- | --- | --- | --- |
| FGR (FGR proto-oncogene, Src family tyrosine kinase) | 1 | 51.7 | active |
| FGR (FGR proto-oncogene, Src family tyrosine kinase) | 2 | 53.6 | active |
| FGR (FGR proto-oncogene, Src family tyrosine kinase) | 3 | 54.8 | active |
| H4C15 (H4 clustered histone 15) | 1 | 64.2 | active |
| H4C15 (H4 clustered histone 15) | 2 | 56.4 | active |
| H4C15 (H4 clustered histone 15) | 3 | 62.4 | active |
| NFAM1 (NFAT activating protein with ITAM motif 1) | 1 | 45.4 | active |
| NFAM1 (NFAT activating protein with ITAM motif 1) | 2 | 58.9 | active |
| NFAM1 (NFAT activating protein with ITAM motif 1) | 3 | 55.2 | active |
| ARAF (A-Raf proto-oncogene, serine/threonine kinase) | 1 | 55.5 | active |
| ARAF (A-Raf proto-oncogene, serine/threonine kinase) | 2 | 62.3 | active |
| ARAF (A-Raf proto-oncogene, serine/threonine kinase) | 3 | 56.2 | active |
| DHX40 (DEAH-box helicase 40) | 1 | 39.2 | active |
| DHX40 (DEAH-box helicase 40) | 2 | 49.9 | active |
| DHX40 (DEAH-box helicase 40) | 3 | 40.2 | active |
| SDC4 (syndecan 4) | 1 | 52.2 | active |
| SDC4 (syndecan 4) | 2 | 53.3 | active |
| SDC4 (syndecan 4) | 3 | 56.5 | active |
| PWWP3B (PWWP domain containing 3B) | 1 | 53.3 | active |
| PWWP3B (PWWP domain containing 3B) | 2 | 62 | active |
| PWWP3B (PWWP domain containing 3B) | 3 | 53.1 | active |
| ARFGEF2 (ARF guanine nucleotide exchange factor 2) | 1 | 57 | active |
| ARFGEF2 (ARF guanine nucleotide exchange factor 2) | 2 | 56.5 | active |
| ARFGEF2 (ARF guanine nucleotide exchange factor 2) | 3 | 45.8 | active |
| CHMP1A (charged multivesicular body protein 1A) | 1 | 53.2 | active |
| CHMP1A (charged multivesicular body protein 1A) | 2 | 50.6 | active |
| CHMP1A (charged multivesicular body protein 1A) | 3 | 47.7 | active |
| TONSL (tonsoku like, DNA repair protein) | 1 | 53.6 | active |
| TONSL (tonsoku like, DNA repair protein) | 2 | 41.4 | active |
| TONSL (tonsoku like, DNA repair protein) | 3 | 45.7 | active |
| KDM1B (lysine demethylase 1B) | 1 | 63.3 | active |
| KDM1B (lysine demethylase 1B) | 2 | 70.9 | active |
| KDM1B (lysine demethylase 1B) | 3 | 71.4 | active |
| CLDN14 (claudin 14) | 1 | 28.5 | active |
| CLDN14 (claudin 14) | 2 | 23.4 | active |
| CLDN14 (claudin 14) | 3 | 19.3 | active |
| NAALADL1 (N-acetylated alpha-linked acidic dipeptidase like 1) | 1 | 72.7 | active |
| NAALADL1 (N-acetylated alpha-linked acidic dipeptidase like 1) | 2 | 72.3 | active |
| NAALADL1 (N-acetylated alpha-linked acidic dipeptidase like 1) | 3 | 56.3 | active |
| MAP2K6 (mitogen-activated protein kinase kinase 6) | 1 | 87.3 | inactive |
| MAP2K6 (mitogen-activated protein kinase kinase 6) | 2 | 82.1 | inactive |
| MAP2K6 (mitogen-activated protein kinase kinase 6) | 3 | 66.8 | active |
| IGF1R (insulin like growth factor 1 receptor) | 1 | 55.4 | active |
| IGF1R (insulin like growth factor 1 receptor) | 2 | 58.8 | active |
| IGF1R (insulin like growth factor 1 receptor) | 3 | 44.6 | active |
| ZCCHC13 (zinc finger CCHC-type containing 13) | 1 | 62 | active |
| ZCCHC13 (zinc finger CCHC-type containing 13) | 2 | 67 | active |
| ZCCHC13 (zinc finger CCHC-type containing 13) | 3 | 33.5 | active |
| UCK1 (uridine-cytidine kinase 1) | 1 | 107 | inactive |
| UCK1 (uridine-cytidine kinase 1) | 2 | 56 | active |
| UCK1 (uridine-cytidine kinase 1) | 3 | 52.9 | active |
| MYC (MYC proto-oncogene, bHLH transcription factor) | 1 | 30.1 | active |
| MYC (MYC proto-oncogene, bHLH transcription factor) | 2 | 30.3 | active |
| MYC (MYC proto-oncogene, bHLH transcription factor) | 3 | 24.8 | active |
| CHIC1 (cysteine rich hydrophobic domain 1) | 1 | 53 | active |
| CHIC1 (cysteine rich hydrophobic domain 1) | 2 | 50.9 | active |
| CHIC1 (cysteine rich hydrophobic domain 1) | 3 | 53.4 | active |
| SETD2 (SET domain containing 2, histone lysine methyltransferase) | 1 | 48.9 | active |
| SETD2 (SET domain containing 2, histone lysine methyltransferase) | 2 | 45.2 | active |
| SETD2 (SET domain containing 2, histone lysine methyltransferase) | 3 | 44.3 | active |
| PDPK1 (3-phosphoinositide dependent protein kinase 1) | 1 | 101 | inactive |
| PDPK1 (3-phosphoinositide dependent protein kinase 1) | 2 | 70.6 | active |
| PDPK1 (3-phosphoinositide dependent protein kinase 1) | 3 | 64.7 | active |
| SLIT2 (slit guidance ligand 2) | 1 | 30.3 | active |
| SLIT2 (slit guidance ligand 2) | 2 | 40.8 | active |
| SLIT2 (slit guidance ligand 2) | 3 | 28.9 | active |
| GINS1 (GINS complex subunit 1) | 1 | 59.9 | active |
| GINS1 (GINS complex subunit 1) | 2 | 45.9 | active |
| GINS1 (GINS complex subunit 1) | 3 | 46.1 | active |
| PRKCE (protein kinase C epsilon) | 1 | 55.5 | active |
| PRKCE (protein kinase C epsilon) | 2 | 42.2 | active |
| PRKCE (protein kinase C epsilon) | 3 | 41.1 | active |
| CACNA1G (calcium voltage-gated channel subunit alpha1 G) | 1 | 62.5 | active |
| CACNA1G (calcium voltage-gated channel subunit alpha1 G) | 2 | 68.2 | active |
| CACNA1G (calcium voltage-gated channel subunit alpha1 G) | 3 | 52.4 | active |

Single entries from the entries so far:
IGF1R (insulin like growth factor 1 receptor), technical replicate 3, Call → active
For “Call”, ARAF (A-Raf proto-oncogene, serine/threonine kinase), technical replicate 3 has active
Value of CHIC1 (cysteine rich hydrophobic domain 1), technical replicate 2 in “viability, normalised (%)”: 50.9
